From the supplement of paper PMC7806825

Tested on: McpC ligand-binding domain (Salmonella Typhimurium SL1344)
Test: protein melting temperature (Tm) in presence of compound (degrees C); higher = more thermal stabilisation (possible ligand binding)
Conditions: Biolog plate: PM05; compound stock concentration: 10-20 mM, 2 uL in 10 uL reaction

Row | Compound | protein melting temperature
1 | C=C(O[C@@H]1C=C(C(=O)O)C=C[C@H]1O)C(=O)O [Chorismic acid] | 44.5
2 | O=C(O)C1=C[C@@H](O)[C@@H](O)[C@H](O)C1 [(-)Shikimic acid] | 44.6
